No constants are given. Whether binding was seen depends on the method and setting. In cells and extracts the contact can be indirect. Some results given as binding are weak or reduced against the parent protein; the word gives no strength. Where a sequence is shown, tags or fusion partners need not be part of it. One block for each binder: values may come before it.
Columns and labels:
[1] = target: T1, MYC-CHFR, full-length checkpoint with forkhead and ring finger domains (human) (UniProt Q96EP1); assay: co-IP; HEK293T co-transfected; lysis in NETN buffer (100 mM NaCl, 1 mM EDTA, 20 mM Tris-HCl pH 8.0, 0.5% Nonidet P-40); MYC-tagged protein precipitated on anti-Myc magnetic beads, 4 °C, 2 h; immunoblot
T1 sequence: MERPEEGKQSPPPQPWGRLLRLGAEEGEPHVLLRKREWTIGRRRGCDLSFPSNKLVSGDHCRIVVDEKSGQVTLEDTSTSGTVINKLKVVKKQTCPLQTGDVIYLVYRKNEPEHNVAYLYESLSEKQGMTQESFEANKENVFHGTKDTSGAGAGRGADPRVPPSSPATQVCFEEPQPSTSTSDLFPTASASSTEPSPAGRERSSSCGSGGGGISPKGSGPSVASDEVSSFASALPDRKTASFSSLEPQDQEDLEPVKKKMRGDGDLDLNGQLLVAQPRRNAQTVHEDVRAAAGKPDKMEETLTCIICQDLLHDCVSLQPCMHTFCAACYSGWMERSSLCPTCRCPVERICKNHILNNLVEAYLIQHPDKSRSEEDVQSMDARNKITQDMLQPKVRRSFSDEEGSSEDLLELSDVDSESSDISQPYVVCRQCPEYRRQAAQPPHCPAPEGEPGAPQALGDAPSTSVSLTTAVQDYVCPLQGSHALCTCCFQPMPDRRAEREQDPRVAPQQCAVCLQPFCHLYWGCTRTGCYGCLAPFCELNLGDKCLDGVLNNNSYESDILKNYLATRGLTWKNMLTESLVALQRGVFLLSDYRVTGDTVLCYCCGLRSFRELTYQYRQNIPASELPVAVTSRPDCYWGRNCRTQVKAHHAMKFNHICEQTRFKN

[2] = target: T2, SFB-ZEB1, triple-epitope (S-protein, FLAG tag, and streptavidin-binding peptide)-tagged zinc finger E-box-binding homeobox 1 (UniProt P37275); assay: co-IP; HEK293T co-transfected; lysis in NETN buffer (100 mM NaCl, 1 mM EDTA, 20 mM Tris-HCl pH 8.0, 0.5% Nonidet P-40); SFB-tagged protein pulled down on streptavidin-Sepharose beads, 4 °C, 2 h; immunoblot
T2 sequence: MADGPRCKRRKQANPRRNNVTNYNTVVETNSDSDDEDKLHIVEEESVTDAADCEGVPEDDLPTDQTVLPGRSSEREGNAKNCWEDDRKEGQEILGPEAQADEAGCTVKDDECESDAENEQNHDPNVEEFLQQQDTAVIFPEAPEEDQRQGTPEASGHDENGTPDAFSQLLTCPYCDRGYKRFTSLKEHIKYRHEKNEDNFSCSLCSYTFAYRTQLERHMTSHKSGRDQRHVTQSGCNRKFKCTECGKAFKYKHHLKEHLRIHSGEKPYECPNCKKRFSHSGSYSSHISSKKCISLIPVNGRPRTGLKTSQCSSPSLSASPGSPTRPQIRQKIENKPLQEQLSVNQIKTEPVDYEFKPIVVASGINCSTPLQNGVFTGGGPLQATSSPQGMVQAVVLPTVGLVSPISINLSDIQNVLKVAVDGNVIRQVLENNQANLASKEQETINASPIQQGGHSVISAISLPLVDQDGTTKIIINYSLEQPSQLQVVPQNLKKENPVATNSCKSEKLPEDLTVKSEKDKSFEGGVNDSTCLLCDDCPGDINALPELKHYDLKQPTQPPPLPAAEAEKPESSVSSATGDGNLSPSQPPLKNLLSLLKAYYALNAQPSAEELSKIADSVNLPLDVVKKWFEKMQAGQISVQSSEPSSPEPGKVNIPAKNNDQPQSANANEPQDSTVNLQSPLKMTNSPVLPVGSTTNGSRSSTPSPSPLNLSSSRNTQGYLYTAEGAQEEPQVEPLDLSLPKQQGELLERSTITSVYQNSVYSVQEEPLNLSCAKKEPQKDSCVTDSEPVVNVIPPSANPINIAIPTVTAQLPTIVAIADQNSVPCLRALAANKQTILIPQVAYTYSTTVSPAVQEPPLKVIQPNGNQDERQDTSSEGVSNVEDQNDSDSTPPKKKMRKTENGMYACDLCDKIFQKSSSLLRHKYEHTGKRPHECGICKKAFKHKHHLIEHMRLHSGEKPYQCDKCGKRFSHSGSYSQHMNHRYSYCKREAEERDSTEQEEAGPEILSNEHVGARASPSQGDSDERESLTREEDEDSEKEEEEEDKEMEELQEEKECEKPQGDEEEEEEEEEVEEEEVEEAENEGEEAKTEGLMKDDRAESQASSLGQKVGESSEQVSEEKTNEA

binding [1]: binds
B1: SFB-ZEB1, triple-epitope (S-protein, FLAG tag, and streptavidin-binding peptide)-tagged zinc finger E-box-binding homeobox 1 (protein, UniProt P37275 1-1124)
chain: T2 sequence

binding [2]: binds
B2: MYC-CHFR, full-length checkpoint with forkhead and ring finger domains (enzyme, UniProt Q96EP1 1-664)
chain: T1 sequence

Reference: publication PMC8405615
